These are yes or no findings as the source states them, for the method shown. Binding seen in cells or lysates may run through a third protein. Some binding calls cover weakened binding; strength is not graded here.
B1: cdk4 (enzyme, UniProt P30285 2-303, looked up)
chain: AATRYEPVAEIGVGAYGTVYKARDPHSGHFVALKSVRVPNGGAAGGGLPVSTVREVALLRRLEAFEHPNVVRLMDVCATSRTDRDIKVTLVFEHIDQDLRTYLDKAPPPGLPVETIKDLMRQFLSGLDFLHANCIVHRDLKPENILVTSNGTVKLADFGLARIYSYQMALTPVVVTLWYRAPEVLLQSTYATPVDMWSVGCIFAEMFRRKPLFCGNSEADQLGKIFDLIGLPPEDDWPREVSLPRGAFAPRGPRPVQSVVPEMEESGAQLLLEMLTFNPHKRISAFRALQHSYLHKEESDAE
B2: cdk6 (protein)
chain: MEKDSLSRADQQYECVAEIGEGAYGKVFKARDLKNGGRFVALKRVRVQTSEEGMPLSTIREVAVLRHLETFEHPNVVRLFDVCTVSRTDRETKLTLVFEHVDQDLTTYLDKVPEPGVPTETIKDMMFQLLRGLDFLHSHRVVHRDLKPQNILVTSSGQIKLADFGLARIYSFQMALTSVVVTLWYRAPEVLLQSSYATPVDLWSVGCIFAEMFRRKPLFRGSSDVDQLGKILDIIGLPGEEDWPRDVALPRQAFHSKSAQPIEKFVTDIDELGKDLLLKCLTFNPAKRISAYGALNHPYFQDLERYKDNLNSHLPSNQSTSELNTA

Protein sequences, listed by entry. Tags and fused reporters are not part of them.
UniProt P25322: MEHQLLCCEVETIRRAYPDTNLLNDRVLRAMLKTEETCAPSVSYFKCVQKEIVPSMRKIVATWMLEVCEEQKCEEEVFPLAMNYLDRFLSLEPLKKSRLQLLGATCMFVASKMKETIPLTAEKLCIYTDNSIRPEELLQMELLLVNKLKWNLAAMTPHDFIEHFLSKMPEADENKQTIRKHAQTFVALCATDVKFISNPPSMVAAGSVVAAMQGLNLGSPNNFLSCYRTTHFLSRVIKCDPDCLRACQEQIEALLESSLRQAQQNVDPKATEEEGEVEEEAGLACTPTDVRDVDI

Molecular target: T1, cyclin D1 (UniProt P25322 1-295)
T1 construct: Immunoprecipitated from NIH 3T3 lysates
Assay: co-immunoprecipitation with cyclin D1 from NIH 3T3 lysates, immunoblot

Binder	binding
B1	binds
B2	binds

Reference: patent US7811561 (dated 2010)
